Laboratory results from US20220362278A1, “RENAL TARGETING-TYPE DRUG DELIVERY CARRIER HAVING EXCELLENT BIODEGRABILITY” (priority 2019, published 2022).
Some entries repeat one wording, which the source may state once for all of them.

assay: Releasability of serine and biodegradability: PD-10 fractionation of kidney homogenate radioactivity; settings: PD-10 column
Experimental: The kidney after blood removal was immediately ice-cooled, purified water (4 mL) was added and homogenized. A saturated potassium chloride solution (1 mL) was added to the prepared kidney homogenate, and the mixture was allowed to stand at 4° C. overnight and then centrifuged. The centrifuged supernatant (1 mL) was developed on a PD-10 column with 0.1 M acetate buffer (pH 6.0), and the radioactivity of the fraction was measured.

Substance | radioactivity in high / low molecular weight fraction, sample before administration
^111In-labeled PAMAM(G3) | on the high molecular weight fraction side
^111In-labeled poly-L-lysine | on the high molecular weight fraction side
^111In-labeled serine-modified poly-L-lysine [^111In-labeled compound (Ia)] | on the high molecular weight fraction side
